In this assay the target is T1, 1-252 variant of human SNT-2, C-terminal FLAG-tag (human) (UniProt O43559).
T1 sequence: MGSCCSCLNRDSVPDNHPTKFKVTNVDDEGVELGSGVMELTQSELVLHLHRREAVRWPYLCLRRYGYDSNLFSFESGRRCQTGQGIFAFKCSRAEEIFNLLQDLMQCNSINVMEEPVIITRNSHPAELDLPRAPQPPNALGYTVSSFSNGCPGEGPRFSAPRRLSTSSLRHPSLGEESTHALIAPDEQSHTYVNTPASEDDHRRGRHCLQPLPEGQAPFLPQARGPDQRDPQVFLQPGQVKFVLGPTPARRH
The assay is described as follows: GST pull-down from HEK293 lysate on Glutathione Sepharose, immunoblot. On the technique in general: Immunoblotting shows a protein as a band on a membrane.

By UniProt entry, the sequences of proteins in these tests, tags left out.
UniProt P28482: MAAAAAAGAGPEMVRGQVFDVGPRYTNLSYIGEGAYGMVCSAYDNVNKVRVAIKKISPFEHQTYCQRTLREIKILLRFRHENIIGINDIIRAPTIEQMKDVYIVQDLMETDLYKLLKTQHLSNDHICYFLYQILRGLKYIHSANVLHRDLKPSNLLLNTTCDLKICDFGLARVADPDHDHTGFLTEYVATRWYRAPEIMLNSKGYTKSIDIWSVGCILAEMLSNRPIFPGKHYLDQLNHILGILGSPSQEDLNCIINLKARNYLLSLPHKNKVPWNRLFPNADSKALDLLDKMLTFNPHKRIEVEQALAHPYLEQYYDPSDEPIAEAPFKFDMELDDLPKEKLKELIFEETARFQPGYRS

These are yes or no findings as the source states them, for the method shown. In cells and extracts the contact can be indirect. Some binding calls cover weakened binding; strength is not graded here. Tags and fused reporters may be left off the sequences shown.

On to “GST-ERK2 fusion protein (glutathione S-transferase fused with human ERK2, from pGEX-4T-1) (from UniProt P28482 1-360)”, for which the binding entry is recorded as “binds”.

The record behind these values is patent publication US20100062978A1.
